The supplement of paper PMC12067093, “Discovery and optimisation of a covalent ligand for TRIM25 and its application to targeted protein ubiquitination” (Chemical Science, 2025)
Some of the results follow.

Protein sequences, listed by entry. Tags and fused reporters are not part of them. Lines headed by an entry give the natural chain unless they say otherwise; changes in a name come on top.
UniProt Q09472, whole entry, looked up: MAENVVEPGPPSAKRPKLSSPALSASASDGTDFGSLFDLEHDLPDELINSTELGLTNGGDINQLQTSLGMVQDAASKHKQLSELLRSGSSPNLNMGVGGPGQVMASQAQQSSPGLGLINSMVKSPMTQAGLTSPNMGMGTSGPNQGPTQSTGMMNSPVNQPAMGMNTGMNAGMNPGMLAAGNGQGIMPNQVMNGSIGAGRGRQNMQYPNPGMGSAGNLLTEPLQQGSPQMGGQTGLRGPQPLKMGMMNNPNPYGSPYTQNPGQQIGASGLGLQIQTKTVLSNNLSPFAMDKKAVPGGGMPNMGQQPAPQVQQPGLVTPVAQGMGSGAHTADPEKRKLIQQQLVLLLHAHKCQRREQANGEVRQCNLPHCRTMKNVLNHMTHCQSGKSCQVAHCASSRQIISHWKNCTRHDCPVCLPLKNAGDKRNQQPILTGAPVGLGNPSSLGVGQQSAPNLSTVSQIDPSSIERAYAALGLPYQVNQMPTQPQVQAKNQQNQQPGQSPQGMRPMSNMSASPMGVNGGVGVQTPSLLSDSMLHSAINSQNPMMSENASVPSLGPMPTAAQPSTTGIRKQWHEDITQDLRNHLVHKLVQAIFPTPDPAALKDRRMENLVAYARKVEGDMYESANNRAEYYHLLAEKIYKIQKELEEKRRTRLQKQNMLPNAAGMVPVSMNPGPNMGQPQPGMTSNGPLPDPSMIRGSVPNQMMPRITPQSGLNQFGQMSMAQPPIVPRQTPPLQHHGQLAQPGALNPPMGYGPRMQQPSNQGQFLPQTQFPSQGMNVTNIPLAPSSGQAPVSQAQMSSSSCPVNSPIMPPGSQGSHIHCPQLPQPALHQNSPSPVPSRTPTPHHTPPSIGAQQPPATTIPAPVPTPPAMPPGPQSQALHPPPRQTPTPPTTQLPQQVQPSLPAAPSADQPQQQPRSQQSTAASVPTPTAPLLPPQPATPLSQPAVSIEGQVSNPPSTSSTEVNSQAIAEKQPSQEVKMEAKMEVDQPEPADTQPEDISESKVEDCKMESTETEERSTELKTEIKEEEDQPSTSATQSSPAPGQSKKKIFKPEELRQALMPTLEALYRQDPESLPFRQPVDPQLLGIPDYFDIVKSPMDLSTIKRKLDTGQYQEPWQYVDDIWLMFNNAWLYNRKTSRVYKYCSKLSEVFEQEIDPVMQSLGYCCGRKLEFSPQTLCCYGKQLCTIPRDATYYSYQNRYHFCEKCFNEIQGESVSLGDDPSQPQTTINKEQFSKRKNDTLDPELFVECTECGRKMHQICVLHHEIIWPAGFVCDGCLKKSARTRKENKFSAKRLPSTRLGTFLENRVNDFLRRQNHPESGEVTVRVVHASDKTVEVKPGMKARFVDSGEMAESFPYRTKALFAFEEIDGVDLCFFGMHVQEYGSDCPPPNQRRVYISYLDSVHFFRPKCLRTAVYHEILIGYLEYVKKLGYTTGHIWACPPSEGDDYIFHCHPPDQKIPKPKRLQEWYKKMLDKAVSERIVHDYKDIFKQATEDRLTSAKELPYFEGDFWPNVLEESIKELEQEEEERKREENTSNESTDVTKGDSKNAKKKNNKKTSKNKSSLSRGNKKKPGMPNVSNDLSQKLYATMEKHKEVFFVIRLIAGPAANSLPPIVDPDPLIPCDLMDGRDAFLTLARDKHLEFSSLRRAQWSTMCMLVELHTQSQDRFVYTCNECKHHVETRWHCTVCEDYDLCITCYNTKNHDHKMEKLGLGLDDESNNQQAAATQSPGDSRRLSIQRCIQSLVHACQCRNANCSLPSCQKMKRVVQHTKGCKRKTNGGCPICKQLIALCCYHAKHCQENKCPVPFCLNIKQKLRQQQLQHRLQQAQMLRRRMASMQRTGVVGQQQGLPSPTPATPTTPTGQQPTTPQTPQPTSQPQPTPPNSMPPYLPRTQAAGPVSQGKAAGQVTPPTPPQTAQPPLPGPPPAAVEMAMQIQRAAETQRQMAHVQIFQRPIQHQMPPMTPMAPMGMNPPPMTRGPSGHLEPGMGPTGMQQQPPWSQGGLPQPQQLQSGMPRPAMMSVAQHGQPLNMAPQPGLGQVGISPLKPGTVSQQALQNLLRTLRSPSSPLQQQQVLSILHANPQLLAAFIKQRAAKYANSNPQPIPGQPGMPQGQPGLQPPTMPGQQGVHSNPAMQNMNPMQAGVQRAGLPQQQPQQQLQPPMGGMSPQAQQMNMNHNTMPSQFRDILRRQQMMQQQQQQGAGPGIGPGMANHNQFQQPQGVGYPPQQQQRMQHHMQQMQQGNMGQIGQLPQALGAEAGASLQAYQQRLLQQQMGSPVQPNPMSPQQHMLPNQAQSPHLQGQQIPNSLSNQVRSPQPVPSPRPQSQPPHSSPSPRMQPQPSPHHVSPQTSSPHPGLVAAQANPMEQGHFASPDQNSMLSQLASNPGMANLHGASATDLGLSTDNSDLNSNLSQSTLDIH
UniProt O43432, whole entry, looked up: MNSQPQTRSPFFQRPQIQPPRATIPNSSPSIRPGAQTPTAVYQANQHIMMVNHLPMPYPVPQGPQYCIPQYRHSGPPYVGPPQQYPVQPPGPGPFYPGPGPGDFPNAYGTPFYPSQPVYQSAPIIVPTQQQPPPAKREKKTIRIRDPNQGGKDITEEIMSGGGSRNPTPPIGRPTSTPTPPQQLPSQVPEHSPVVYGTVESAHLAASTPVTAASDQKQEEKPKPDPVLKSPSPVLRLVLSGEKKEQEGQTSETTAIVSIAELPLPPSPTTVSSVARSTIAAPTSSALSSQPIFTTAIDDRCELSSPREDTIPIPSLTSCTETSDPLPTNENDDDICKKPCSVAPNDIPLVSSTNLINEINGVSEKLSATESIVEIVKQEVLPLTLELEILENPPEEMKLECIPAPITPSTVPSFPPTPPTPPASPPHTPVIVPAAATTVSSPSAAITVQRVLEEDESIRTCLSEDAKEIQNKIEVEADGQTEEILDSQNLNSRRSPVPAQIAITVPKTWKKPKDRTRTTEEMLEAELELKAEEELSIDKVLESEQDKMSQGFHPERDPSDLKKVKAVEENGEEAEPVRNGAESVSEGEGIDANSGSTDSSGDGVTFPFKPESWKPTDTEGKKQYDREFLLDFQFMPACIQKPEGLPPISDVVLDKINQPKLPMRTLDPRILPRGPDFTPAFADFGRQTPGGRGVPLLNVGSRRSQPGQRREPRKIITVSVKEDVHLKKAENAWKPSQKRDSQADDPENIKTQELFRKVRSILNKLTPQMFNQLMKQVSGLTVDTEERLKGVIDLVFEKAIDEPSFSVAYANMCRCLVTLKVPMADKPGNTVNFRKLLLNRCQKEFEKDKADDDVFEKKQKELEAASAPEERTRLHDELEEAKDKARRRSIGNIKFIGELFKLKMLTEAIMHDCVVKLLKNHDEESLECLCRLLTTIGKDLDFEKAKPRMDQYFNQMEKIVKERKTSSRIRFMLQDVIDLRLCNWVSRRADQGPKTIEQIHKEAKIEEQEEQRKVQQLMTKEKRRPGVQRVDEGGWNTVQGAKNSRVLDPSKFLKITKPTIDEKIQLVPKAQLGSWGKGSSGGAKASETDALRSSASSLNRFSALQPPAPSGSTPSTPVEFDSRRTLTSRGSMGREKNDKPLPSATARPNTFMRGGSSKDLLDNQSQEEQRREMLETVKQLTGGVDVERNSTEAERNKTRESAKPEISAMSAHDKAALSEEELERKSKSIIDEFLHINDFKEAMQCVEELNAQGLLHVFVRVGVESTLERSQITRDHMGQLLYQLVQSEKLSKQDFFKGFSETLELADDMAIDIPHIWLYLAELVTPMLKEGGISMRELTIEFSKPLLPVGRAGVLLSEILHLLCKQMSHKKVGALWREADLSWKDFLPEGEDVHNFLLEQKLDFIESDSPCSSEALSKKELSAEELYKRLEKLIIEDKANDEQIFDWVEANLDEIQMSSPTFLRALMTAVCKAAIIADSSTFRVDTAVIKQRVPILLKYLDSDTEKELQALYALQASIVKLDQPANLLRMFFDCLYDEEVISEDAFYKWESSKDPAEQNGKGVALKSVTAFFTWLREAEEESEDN
UniProt Q9UHY7: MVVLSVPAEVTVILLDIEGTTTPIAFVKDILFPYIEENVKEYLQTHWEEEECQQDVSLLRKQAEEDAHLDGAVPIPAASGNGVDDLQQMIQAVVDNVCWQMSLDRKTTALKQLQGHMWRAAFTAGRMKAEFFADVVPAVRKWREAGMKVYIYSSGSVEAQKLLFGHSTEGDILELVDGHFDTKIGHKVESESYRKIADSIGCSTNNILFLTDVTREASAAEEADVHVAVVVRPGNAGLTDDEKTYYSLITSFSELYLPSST
UniProt P42566: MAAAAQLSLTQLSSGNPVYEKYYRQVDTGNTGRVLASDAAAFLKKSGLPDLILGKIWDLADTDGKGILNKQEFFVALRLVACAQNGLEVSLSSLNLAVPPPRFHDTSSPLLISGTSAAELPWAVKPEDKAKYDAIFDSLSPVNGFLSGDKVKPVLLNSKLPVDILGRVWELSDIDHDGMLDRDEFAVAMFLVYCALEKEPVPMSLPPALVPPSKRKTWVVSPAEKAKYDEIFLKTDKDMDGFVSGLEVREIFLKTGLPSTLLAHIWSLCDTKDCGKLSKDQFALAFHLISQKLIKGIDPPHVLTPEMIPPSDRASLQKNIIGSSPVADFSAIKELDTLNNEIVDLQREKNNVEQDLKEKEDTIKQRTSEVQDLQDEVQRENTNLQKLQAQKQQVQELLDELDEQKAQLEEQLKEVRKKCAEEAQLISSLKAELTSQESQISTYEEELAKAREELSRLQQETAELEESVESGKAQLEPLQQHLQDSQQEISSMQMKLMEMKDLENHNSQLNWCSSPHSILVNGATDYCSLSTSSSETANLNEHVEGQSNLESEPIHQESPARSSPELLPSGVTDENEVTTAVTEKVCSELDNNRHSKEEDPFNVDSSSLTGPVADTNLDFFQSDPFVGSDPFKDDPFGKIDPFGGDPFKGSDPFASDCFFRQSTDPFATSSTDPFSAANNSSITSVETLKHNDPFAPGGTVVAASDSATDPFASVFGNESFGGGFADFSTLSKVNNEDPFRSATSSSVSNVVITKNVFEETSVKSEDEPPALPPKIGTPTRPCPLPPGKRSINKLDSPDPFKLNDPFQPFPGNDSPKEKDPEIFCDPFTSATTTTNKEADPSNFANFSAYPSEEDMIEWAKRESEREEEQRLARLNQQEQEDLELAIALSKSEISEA
UniProt Q32P44: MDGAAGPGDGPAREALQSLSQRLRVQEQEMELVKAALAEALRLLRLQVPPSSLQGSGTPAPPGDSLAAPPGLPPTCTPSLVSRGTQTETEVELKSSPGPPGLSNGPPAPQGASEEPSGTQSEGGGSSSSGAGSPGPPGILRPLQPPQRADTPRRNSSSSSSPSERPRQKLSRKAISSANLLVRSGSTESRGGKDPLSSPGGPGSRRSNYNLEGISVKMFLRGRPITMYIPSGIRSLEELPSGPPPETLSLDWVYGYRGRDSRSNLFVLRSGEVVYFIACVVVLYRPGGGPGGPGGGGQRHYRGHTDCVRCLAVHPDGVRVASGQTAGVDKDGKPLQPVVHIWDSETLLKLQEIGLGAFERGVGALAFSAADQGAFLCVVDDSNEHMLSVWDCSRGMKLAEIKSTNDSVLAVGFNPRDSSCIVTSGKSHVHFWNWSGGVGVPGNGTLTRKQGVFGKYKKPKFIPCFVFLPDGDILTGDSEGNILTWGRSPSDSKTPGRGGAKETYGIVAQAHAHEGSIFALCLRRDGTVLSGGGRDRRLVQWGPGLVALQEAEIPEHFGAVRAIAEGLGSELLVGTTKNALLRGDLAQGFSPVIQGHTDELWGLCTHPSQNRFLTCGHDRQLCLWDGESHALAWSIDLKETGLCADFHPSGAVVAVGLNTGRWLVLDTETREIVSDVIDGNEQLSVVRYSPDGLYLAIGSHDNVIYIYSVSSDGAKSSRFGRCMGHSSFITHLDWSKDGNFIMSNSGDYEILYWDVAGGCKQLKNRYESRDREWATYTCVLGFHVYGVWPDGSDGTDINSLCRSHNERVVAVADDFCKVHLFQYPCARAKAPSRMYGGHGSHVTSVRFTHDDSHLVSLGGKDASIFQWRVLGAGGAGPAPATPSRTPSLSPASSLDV
UniProt P08246: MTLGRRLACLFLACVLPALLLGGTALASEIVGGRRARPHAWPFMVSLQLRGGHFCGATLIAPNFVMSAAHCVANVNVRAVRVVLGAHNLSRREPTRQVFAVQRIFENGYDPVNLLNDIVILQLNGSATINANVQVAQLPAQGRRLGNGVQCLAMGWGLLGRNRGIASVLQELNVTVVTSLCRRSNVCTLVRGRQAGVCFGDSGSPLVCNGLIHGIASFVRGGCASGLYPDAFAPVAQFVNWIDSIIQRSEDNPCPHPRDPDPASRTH
UniProt Q9UBQ5, whole entry, looked up: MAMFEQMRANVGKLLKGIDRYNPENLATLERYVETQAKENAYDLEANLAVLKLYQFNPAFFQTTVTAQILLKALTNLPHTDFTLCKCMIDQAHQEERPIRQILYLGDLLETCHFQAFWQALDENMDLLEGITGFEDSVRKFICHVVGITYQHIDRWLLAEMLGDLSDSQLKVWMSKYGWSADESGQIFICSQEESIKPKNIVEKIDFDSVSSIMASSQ

Compound: Cc1cc(ccc1-c1ccccc1)C(=O)N1CCCN(CC1)C(=O)CCl [compound 10]
Assay: probe-labelled cysteine peptide fold change vs DMSO (competition) (log2 fold change); higher = less target engagement (more negative = stronger competition)
Details: THP-1, incubation time: 4 h
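Note: competitive profiling in live THP-1 cells: cysteine peptides tagged with an iodoacetamide desthiobiotin (IA-DTB) probe, intensity after compound treatment relative to DMSO-treated cells.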

Row | Target | probe-labelled cysteine peptide fold change (10 µM) | probe-labelled cysteine peptide fold change (50 µM)
1 | ENOSF1_Q7L5Y1_330_ALQFLQIDSCR (UniProt Q7L5Y1) | -0.0317 | -0.0285
2 | EP300_Q09472_1250_RKNDTLDPELFVECTECGR (UniProt Q09472) | -0.101 | 0.125
3 | EIF4A2_Q14240_132_VILALGDYMGATCHACIGGTNVR (UniProt Q14240) | -0.0101 | 0.207
4 | ELOB_Q15370_60_TLGECGFTSQTARPQAPATVGLAFR (UniProt Q15370) | -0.1 | -0.0923
5 | ELMO1_Q92556_438_VGELPSETCNDFHPMFFTHDR (UniProt Q92556) | 0.319 | 0.338
6 | EIF4G1_Q04637_821_CLMALK (UniProt Q04637) | 0.0226 | 0.0456
7 | EIPR1_Q53HC9_95_VLTCAAVWR (UniProt Q53HC9) | 0.205 | 0.175
8 | ELOVL1_Q9BW60_93_CDPVDYSNSPEALR (UniProt Q9BW60) | -0.0503 | 0.318
9 | EIF4G3_O43432_1411_LDFIESDSPCSSEALSK (UniProt O43432) | -0.128 | -0.0326
10 | ELOF1_P60002_26+29_MTGTLETQFTCPFCNHEK (UniProt P60002) | -0.15 | -0.797
11 | EML2_O95834_163_AVCCVGFSK (UniProt O95834) | 0.0229 | -0.0945
12 | EIF4G3_O43432_928+930_NHDEESLECLCR (UniProt O43432) | 0.176 | -0.343
13 | ENOPH1_Q9UHY7_202_IADSIGCSTNNILFLTDVTR (UniProt Q9UHY7) | 0.0416 | -0.0738
14 | EIF3M_Q7L2H7_52_GAEISEENSEGGLHVDLAQIIEACDVCLKEDDK (UniProt Q7L2H7) | 0.27 | -0.275
15 | EIF4E_P06730_170_IAIWTTECENR (UniProt P06730) | -0.102 | -0.00663
16 | EPS15_P42566_824_EKDPEIFCDPFTSATTTTNK (UniProt P42566) | -0.367 | -0.239
17 | ERCC2_P18074_588_YQEACENGR (UniProt P18074) | -0.0903 | -0.0608
18 | EPS15L1_Q9UBC2_82_LVACAQSGHEVTLSNLNLSMPPPK (UniProt Q9UBC2) | 0.33 | 0.38

Row | Target | probe-labelled cysteine peptide fold change (10 µM) | probe-labelled cysteine peptide fold change (50 µM)
19 | EML3_Q32P44_825_VHLFQYPCAR (UniProt Q32P44) | 0.303 | 0.179
20 | EPRS_P07814_660_HEELMLGDPCLK (UniProt P07814) | -0.0678 | -0.063
21 | EML3_Q32P44_615_FLTCGHDR (UniProt Q32P44) | -0.0338 | -0.246
22 | EML3_Q32P44_420_DSSCIVTSGK (UniProt Q32P44) | 0.137 | -0.2
23 | EP300_Q09472_382_NVLNHMTHCQSGK (UniProt Q09472) | 0.0586 | -0.117
24 | ELANE_P08246_254_SEDNPCPHPRDPDPASR (UniProt P08246) | -0.427 | -0.892
25 | EPS15_P42566_82_LVACAQNGLEVSLSSLNLAVPPPR (UniProt P42566) | -0.018 | 0.565
26 | ELP4_Q96EB1_412_LGPGCGMMAGGK (UniProt Q96EB1) | -0.372 | -1.07
27 | ELP2_Q6IA86_675_IIWSCDWSPDSK (UniProt Q6IA86) | 0.255 | 0.285
28 | EPRS_P07814_336+337_KGSQFGQSCCLR (UniProt P07814) | -0.117 | -0.698
29 | ELANE_P08246_254_SEDNPCPHPR (UniProt P08246) | -0.468 | -0.401
30 | ELP2_Q6IA86_572+575_LYGHGYEIFCVTCNSSK (UniProt Q6IA86) | 0.105 | -0.17
31 | ENOPH1_Q9UHY7_202_KIADSIGCSTNNILFLTDVTR (UniProt Q9UHY7) | -0.0703 | -0.42
32 | ENO1_P06733_337_SCNCLLLK (UniProt P06733) | 0.118 | -0.0633
33 | ELP5_Q8TE02_61_SALCGEQVHILGCEVSEEEFR (UniProt Q8TE02) | 0.153 | 0.36
34 | EIF3K_Q9UBQ5_87_CMIDQAHQEERPIR (UniProt Q9UBQ5) | 0.181 | -0.134
35 | EME1_Q96AY2_437_ELADFTCAFTK (UniProt Q96AY2) | 0.0835 | -0.0629
36 | ELAC2_Q9BQ52_670_VVYSGDTMPCEALVR (UniProt Q9BQ52) | -0.257 | -0.582

3 entries picked at random from the list so far:
Row | Target | probe-labelled cysteine peptide fold change (10 µM) | probe-labelled cysteine peptide fold change (50 µM)
35 | EME1_Q96AY2_437_ELADFTCAFTK (UniProt Q96AY2) | 0.0835 | -0.0629
25 | EPS15_P42566_82_LVACAQNGLEVSLSSLNLAVPPPR (UniProt P42566) | -0.018 | 0.565
19 | EML3_Q32P44_825_VHLFQYPCAR (UniProt Q32P44) | 0.303 | 0.179
